No constants are given. Whether binding was seen depends on the method and setting. In cells and extracts the contact can be indirect. Some binding calls cover weakened binding; strength is not graded here. Where a sequence is shown, tags or fusion partners need not be part of it.
Biological target: Rts1-9Myc (S. cerevisiae) (UniProt P38903)
Assay: pull-down; Rts1-9Myc immunoprecipitated from sgo1Δ RTS1-9MYC lysate on anti-Myc Protein G Dynabeads, then incubated with products of in vitro SUMOylation of Sgo1 (with or without ATP); anti-V5 and anti-Myc blots; only the binder purified

Chains of the proteins cited; added tags and fusions are not shown.
UniProt P38903: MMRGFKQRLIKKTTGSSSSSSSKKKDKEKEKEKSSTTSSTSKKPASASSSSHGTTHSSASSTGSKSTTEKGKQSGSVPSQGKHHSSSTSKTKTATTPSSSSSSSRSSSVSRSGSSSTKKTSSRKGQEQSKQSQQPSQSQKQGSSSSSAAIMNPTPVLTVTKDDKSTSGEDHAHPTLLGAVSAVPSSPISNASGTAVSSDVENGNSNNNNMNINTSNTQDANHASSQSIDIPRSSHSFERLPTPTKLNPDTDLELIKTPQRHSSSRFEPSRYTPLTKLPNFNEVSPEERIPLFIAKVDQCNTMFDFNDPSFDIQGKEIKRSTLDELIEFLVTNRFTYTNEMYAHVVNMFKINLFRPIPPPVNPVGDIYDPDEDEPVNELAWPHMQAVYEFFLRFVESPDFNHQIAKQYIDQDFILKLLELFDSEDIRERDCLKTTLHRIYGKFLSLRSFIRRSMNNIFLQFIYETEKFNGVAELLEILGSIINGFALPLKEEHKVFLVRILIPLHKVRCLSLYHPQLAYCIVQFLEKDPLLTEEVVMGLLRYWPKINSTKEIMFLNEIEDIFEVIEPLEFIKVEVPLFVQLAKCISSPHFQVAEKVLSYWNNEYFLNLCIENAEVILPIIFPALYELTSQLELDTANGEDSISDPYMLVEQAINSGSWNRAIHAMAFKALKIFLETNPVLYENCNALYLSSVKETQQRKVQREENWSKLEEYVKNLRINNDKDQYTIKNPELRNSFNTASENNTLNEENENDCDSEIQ

binding: binds
B1: recombinant Hisx7-V5-tagged Sgo1, unSUMOylated (protein, UniProt Q08490 1-590)
chain: MPKRKIAPNKESSRRTVSHDDLTPQIQEFQNLMDLESQKVENIRQSYSRQNSLLAKDNSILKIKVNSLEKKISQLVQENVTLRSKTSISEAIYRERLSNQLQVIENGIIQRFDEIFYMFENVRKNENLPSSSLRTMLKRTSSRSRSCSLSSPTYSKSYTRLSNHENNLSHESSFNKDDGPDLEPKAKKRKSSRRQSMFVSTSLEPEDETGENEPMMENSSVEVPAESHESAQVEETIDALNPEEENSDSVSNFTNSIIEYSIPEENPTEPEHSSSKLEIFNDSTNMLSTVPSNPLPLPLPGPSATLPTTTSDASTVYPSSSSSTNSHPKTKIKHSMKPPRIELKKKVIDEVMPVSNMSSNSEISFTRTRRTRGKAVDYTLPSLRAKMRRPSEKLVDATTVIDIHDLQVSKRNRETSHKRKSLSQDSIPDEPQLREVVVSKDYGTPKGKKTEDEIHEDTAHLMTTSNNNSNNKNEKKLTSNNSPKKSSPLLDITNKSENKKKSTRTKKLFKNAIVNNLSDENSTTRPSKSSKGTSNNNNNYNNFDNNNSNINNVNNKSVSFRLNEDDLAVFDLFGNGKAVKHQPKTYRTKK
